From the supplement of paper PMC10849652
The list shows a part of the results.

The chains behind the UniProt entries cited, without tags or fusion partners. Where a name states a change or a piece, a line headed by the entry shows the natural chain unless it says otherwise.
UniProt P11234: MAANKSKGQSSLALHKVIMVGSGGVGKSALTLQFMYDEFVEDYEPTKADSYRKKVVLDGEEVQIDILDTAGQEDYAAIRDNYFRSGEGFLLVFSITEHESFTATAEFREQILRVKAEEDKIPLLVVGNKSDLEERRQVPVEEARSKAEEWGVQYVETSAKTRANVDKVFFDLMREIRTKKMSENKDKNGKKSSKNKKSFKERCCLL
UniProt P62491: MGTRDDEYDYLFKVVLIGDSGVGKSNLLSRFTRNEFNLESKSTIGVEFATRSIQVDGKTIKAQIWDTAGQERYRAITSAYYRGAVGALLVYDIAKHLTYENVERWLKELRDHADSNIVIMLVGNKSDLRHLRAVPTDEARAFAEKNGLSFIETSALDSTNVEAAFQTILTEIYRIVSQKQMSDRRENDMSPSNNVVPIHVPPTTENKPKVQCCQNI
UniProt P20336: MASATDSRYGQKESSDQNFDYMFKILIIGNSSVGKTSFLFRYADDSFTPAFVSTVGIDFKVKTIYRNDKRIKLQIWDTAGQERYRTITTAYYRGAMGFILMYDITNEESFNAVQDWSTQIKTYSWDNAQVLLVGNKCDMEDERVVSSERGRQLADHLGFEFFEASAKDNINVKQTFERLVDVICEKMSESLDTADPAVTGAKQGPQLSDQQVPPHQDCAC
UniProt P53611: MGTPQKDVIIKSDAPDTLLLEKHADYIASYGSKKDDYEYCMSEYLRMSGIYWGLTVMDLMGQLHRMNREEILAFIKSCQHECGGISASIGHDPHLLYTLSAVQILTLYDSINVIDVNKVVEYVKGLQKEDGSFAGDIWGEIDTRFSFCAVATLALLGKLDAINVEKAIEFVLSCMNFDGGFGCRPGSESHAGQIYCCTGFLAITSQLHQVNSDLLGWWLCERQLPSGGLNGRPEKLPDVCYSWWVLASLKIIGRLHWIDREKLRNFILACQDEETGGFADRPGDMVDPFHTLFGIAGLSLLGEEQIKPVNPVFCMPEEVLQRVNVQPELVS
UniProt P62834: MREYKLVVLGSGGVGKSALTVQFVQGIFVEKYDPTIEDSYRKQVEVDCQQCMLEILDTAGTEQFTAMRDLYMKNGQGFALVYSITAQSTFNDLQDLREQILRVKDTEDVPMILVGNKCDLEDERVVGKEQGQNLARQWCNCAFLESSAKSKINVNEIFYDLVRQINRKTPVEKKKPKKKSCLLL
UniProt P52306: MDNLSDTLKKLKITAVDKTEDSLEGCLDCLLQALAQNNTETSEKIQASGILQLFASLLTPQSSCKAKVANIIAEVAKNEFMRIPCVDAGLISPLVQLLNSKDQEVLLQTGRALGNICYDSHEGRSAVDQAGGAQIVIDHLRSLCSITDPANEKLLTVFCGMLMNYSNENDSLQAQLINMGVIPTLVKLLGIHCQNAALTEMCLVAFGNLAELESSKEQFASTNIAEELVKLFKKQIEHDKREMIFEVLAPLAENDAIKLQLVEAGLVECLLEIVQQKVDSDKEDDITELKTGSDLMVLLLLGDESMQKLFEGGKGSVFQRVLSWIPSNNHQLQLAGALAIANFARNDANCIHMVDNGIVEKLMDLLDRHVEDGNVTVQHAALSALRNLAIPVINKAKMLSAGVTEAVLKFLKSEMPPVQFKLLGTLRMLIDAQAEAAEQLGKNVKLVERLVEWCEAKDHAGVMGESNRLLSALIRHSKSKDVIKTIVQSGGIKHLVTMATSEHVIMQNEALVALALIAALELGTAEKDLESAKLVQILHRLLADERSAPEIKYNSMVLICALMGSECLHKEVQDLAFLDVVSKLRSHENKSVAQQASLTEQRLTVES
UniProt Q96S59, whole entry, looked up: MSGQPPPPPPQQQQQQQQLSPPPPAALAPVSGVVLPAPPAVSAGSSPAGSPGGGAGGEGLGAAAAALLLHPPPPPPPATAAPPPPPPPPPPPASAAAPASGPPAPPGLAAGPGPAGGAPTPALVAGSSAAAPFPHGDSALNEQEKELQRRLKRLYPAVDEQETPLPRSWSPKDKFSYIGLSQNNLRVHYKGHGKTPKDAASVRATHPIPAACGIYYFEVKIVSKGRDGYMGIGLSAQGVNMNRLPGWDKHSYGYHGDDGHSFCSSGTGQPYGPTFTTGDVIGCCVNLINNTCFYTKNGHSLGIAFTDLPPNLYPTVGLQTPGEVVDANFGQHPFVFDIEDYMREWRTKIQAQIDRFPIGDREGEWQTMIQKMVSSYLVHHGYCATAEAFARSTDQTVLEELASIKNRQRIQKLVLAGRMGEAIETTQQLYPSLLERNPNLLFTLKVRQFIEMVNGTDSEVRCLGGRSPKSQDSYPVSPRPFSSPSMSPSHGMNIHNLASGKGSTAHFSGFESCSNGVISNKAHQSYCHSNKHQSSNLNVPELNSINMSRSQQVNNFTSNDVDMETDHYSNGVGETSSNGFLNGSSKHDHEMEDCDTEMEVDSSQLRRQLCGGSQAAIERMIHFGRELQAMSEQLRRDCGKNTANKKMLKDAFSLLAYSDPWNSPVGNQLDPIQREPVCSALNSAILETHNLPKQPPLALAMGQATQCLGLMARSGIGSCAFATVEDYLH
UniProt Q9NW64: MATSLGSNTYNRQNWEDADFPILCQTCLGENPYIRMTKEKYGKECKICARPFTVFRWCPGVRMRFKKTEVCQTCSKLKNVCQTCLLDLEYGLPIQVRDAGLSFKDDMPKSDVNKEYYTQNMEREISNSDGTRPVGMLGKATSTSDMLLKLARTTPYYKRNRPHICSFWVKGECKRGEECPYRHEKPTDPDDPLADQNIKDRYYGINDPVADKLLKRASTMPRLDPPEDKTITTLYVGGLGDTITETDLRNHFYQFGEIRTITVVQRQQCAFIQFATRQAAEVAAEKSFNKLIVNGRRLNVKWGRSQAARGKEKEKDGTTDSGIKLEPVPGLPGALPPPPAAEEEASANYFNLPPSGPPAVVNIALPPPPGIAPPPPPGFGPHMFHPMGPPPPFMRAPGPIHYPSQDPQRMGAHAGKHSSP
UniProt Q9UI14, whole entry, looked up: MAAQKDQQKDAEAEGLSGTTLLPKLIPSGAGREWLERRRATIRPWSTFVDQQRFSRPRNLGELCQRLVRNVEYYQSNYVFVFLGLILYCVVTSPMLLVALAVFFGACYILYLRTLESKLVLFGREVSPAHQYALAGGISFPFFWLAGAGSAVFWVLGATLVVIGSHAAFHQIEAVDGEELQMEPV
UniProt P49756, whole entry, looked up: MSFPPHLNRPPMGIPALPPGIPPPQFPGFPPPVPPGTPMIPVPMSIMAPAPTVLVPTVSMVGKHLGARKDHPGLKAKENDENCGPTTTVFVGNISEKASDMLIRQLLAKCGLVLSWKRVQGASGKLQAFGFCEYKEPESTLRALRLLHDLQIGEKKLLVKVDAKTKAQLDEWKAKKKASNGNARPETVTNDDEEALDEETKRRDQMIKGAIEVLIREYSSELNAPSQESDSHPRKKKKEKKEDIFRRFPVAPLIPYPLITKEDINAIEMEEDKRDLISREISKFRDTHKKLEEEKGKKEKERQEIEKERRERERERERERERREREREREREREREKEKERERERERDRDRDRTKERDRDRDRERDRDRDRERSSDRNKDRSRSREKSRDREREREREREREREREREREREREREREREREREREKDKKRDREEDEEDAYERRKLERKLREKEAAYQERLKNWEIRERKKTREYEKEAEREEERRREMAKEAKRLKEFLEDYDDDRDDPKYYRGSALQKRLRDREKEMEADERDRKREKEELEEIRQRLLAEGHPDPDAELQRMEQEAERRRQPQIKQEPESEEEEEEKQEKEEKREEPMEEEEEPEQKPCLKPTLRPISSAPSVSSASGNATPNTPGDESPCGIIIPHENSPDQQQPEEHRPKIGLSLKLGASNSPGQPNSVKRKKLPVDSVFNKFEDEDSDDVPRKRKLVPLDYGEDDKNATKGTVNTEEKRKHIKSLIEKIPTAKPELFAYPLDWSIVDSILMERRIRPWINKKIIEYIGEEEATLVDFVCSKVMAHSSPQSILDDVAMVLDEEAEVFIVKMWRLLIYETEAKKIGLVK
UniProt P06400: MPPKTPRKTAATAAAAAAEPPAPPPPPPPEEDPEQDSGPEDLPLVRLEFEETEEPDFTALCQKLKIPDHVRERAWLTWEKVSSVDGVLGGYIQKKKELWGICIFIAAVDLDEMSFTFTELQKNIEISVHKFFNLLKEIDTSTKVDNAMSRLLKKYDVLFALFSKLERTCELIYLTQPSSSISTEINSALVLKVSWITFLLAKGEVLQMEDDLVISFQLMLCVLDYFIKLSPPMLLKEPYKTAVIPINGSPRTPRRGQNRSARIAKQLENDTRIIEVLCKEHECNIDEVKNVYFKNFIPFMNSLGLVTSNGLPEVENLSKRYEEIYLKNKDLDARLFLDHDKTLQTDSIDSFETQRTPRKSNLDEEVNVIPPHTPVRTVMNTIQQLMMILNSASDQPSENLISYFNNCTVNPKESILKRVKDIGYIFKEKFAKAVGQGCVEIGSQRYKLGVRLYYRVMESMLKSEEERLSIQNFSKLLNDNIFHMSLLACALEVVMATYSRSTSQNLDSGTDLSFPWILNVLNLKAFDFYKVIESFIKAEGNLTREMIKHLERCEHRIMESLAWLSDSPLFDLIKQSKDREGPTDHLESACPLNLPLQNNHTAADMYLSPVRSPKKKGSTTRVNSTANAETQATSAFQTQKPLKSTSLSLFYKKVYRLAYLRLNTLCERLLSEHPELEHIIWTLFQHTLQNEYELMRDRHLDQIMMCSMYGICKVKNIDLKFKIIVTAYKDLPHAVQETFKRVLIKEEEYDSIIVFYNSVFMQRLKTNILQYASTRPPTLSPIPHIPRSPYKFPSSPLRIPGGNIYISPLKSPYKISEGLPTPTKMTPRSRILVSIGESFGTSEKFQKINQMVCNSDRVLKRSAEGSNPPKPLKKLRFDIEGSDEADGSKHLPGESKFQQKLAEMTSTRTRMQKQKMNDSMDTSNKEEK
UniProt P61018: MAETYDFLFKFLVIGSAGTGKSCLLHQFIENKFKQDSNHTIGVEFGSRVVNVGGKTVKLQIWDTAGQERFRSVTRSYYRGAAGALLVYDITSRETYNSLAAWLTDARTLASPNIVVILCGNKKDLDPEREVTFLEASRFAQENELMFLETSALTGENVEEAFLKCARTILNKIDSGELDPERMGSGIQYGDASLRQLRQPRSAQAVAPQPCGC
UniProt Q9NS91, whole entry, looked up: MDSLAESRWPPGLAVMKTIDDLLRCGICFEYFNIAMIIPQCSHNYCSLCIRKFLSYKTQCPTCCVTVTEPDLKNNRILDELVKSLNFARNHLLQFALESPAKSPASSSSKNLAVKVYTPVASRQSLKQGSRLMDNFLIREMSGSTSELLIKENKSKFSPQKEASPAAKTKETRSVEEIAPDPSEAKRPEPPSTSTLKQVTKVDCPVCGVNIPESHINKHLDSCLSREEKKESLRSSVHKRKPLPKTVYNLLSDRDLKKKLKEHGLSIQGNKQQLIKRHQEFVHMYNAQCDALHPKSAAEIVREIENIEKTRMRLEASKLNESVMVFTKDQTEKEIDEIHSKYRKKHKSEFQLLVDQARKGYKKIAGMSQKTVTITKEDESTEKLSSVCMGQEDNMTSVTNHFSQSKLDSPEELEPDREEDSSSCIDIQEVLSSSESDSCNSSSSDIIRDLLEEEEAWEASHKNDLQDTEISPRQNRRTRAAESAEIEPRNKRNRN
UniProt P98179: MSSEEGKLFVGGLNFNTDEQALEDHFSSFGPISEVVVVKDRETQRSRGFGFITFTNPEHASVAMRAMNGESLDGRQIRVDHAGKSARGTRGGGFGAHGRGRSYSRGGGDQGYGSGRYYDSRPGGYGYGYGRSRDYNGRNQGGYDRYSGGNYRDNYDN
UniProt O60216: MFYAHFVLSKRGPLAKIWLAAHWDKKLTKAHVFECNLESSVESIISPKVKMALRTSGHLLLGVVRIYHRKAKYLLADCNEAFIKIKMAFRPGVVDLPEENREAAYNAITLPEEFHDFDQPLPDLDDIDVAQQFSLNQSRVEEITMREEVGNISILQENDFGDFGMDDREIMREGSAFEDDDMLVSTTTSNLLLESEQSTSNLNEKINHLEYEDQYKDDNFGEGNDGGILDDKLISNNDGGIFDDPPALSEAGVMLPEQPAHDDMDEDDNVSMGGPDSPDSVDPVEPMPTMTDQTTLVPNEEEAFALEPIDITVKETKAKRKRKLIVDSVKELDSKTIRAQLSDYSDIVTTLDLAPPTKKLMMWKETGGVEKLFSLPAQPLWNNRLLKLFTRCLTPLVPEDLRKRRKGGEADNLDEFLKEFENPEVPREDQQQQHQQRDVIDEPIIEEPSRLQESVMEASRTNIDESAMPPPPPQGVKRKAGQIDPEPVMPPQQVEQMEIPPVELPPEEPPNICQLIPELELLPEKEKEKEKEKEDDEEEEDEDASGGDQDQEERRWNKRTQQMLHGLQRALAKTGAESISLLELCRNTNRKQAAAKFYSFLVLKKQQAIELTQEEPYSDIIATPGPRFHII
UniProt P61106, whole entry, looked up: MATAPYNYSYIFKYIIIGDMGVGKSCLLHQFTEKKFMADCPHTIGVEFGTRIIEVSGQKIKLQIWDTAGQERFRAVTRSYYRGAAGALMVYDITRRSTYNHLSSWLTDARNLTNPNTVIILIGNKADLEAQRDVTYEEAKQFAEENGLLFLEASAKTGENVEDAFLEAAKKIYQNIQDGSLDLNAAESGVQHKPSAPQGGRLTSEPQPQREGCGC

compound: CCCc1cc(C)[nH]c(=O)c1CNC(=O)c1cc(-c2ccnc(N3CCN(C)CC3)c2)cc2c1cnn2C(C)C; test: log2 fold change, soluble protein after heating vs DMSO (PISA); higher = thermal stabilisation; K562 cells, 10 uM, 30 min; active = over 0.2 and 3.5 SD of the protein, either way, in both replicates (recomputed)
Procedure, shortened: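 K562 cells at 2×10^6 cells/mL were exposed to 10 μM compound for 30 min, then aliquots were heated for 3 min across 48°C-58°C, pooled, and extracted in PBS containing 0.5% NP-40 at 4°C. The supernatant after 21,000xg for 90 min was taken as soluble protein and measured by TMTpro 16plex LC-MS/MS with channel sums equalised. Thermal stability is reported relative to control samples, with values from duplicates. Fold changes are given on a log2 scale.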

log2 fold change, inactive:
RALB isoform 2 (UniProt P11234) 0.106
RACK1 (UniProt P63244) 0.016
RAB11A (UniProt P62491) 0.097
RAB3A (UniProt P20336) -0.123
RABGGTB (UniProt P53611) -0.021
RAP1A (UniProt P62834) 0.018
RAP1GDS1 isoform 5 (UniProt P52306) 0.016
RANBP9 (UniProt Q96S59) 0.069
RAB8B (UniProt Q92930) 0.109
RAB9A (UniProt P51151) 0.003
RAPGEF2, A0A2R8YGD3 -0.153
RBM22 (UniProt Q9NW64) -0.038
RACK1 (UniProt D6RF23) -0.808
RABAC1 (UniProt Q9UI14) -0.016
RBM25 (UniProt P49756) -0.093
RAB2B (UniProt Q8WUD1) 0.084
RAB3IL1 (UniProt Q8TBN0) -0.025
RB1 (UniProt P06400) -0.026
RAB4B isoform 2 (UniProt P61018) -0.052
RAD18 (UniProt Q9NS91) 0.459
RBM3 (UniProt P98179) 0.053
RAD21 (UniProt O60216) -0.028
RAB14 (UniProt P61106) -0.021

Reprinted at random: two records from the list.
log2 fold change, inactive:
RBM25 (UniProt P49756) -0.093
RBM3 (UniProt P98179) 0.053
